Results are given in words; binding and its absence hold for the method and conditions named. Binding seen in cells or lysates may run through a third protein. Here binding means that the protein was enriched with, or labelled near, the bait; the list need not be complete.
Tests used:
[1] = molecular target: Latency-associated peptide (LAP) (mouse (endogenous in SuperMApo of mouse macrophages and apoptotic thymic cells)) (UniProt P04202); experiment: affinity purification with mass spectrometry; surface plasmon resonance biochips coated with anti-LAP antibody; SuperMApo injected; mass spectrometry of the factors retained at the biochip surface
[2] = molecular target: TGF-β1 (mouse (endogenous in SuperMApo of mouse macrophages and apoptotic thymic cells)) (UniProt P04202); experiment: affinity purification with mass spectrometry; surface plasmon resonance biochips coated with anti-TGF-β1 antibody; SuperMApo injected; mass spectrometry of the factors retained at the biochip surface

Chains of the proteins cited; added tags and fusions are not shown. Residues count along the entry.
Latency-associated peptide (LAP) (mouse (endogenous in SuperMApo of mouse macrophages and apoptotic thymic cells)) (P04202, residues 30-278): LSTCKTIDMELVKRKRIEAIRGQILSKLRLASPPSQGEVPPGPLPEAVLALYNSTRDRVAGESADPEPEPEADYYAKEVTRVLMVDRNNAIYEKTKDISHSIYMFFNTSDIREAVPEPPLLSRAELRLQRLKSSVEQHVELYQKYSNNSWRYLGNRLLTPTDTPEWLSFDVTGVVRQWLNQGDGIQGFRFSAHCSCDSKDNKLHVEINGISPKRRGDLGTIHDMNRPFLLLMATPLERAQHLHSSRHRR
UniProt P07356: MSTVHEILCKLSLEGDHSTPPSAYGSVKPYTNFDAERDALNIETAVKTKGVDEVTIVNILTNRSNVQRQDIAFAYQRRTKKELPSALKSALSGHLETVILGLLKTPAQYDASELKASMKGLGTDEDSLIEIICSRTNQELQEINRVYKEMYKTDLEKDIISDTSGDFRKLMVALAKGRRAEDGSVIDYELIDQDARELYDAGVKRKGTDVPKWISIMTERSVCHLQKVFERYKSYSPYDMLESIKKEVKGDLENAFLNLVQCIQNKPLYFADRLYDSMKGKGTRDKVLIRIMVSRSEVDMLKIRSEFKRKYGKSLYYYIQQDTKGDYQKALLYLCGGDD
UniProt P35441, residues 19-1170: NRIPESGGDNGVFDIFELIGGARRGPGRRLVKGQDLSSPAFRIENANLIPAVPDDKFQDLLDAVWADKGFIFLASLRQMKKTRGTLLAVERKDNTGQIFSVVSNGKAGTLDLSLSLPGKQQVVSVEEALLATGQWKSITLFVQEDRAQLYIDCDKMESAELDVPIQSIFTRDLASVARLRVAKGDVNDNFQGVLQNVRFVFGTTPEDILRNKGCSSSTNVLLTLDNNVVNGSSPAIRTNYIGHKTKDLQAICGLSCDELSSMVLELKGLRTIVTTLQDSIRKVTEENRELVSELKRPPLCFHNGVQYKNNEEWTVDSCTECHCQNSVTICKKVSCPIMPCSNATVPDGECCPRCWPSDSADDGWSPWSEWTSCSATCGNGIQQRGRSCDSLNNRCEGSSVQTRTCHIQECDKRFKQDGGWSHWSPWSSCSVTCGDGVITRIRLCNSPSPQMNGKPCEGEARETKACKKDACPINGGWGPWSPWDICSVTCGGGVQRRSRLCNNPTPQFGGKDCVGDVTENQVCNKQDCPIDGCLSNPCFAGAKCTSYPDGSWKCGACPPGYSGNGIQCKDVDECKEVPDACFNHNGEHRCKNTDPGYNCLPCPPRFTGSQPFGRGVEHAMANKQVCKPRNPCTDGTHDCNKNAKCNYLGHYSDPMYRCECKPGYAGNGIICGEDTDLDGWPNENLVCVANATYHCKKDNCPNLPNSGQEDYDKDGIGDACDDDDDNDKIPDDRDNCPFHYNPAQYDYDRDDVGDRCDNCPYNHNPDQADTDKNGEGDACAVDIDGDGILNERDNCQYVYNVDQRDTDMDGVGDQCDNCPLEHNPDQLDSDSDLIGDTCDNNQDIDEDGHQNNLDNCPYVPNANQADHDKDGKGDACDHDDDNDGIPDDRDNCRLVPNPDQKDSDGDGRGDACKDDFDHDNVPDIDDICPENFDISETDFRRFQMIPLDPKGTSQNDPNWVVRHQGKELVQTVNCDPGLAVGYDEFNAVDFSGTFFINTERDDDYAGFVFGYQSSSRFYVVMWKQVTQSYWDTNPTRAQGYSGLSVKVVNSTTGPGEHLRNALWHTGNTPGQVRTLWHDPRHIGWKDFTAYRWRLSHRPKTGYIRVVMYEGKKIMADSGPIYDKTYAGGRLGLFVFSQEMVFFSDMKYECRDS
UniProt P34960, residues 110-473: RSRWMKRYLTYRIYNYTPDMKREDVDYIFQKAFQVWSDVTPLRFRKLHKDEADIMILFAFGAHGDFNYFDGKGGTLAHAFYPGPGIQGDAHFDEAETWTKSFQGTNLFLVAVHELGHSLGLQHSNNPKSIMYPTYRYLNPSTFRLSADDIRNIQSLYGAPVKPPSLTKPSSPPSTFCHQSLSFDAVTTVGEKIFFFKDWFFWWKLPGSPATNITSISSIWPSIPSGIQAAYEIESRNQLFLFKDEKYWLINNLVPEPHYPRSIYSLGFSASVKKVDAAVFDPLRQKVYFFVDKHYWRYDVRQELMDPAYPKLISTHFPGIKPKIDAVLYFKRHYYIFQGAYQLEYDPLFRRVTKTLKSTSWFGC

## Annexin-A2 (from UniProt P07356 1-339)
[1]
  binding: binds

## transthyretin (Ttr) (from UniProt P07309 21-147)
[1]
  binding: binds
[2]
  binding: binds

## thrombospondin-1 (Thbs1) (from UniProt P35441 19-1170)
[1]
  binding: binds
[2]
  binding: binds

## macrophage metalloelastase MMP12 (from UniProt P34960 110-473) (enzyme)
[1]
  binding: binds
[2]
  binding: binds

B1: lipoprotein lipase (enzyme, UniProt P11152 28-474)
chain: ADAGRDFSDIESKFALRTPEDTAEDTCHLIPGLADSVSNCHFNHSSKTFVVIHGWTVTGMYESWVPKLVAALYKREPDSNVIVVDWLYRAQQHYPVSAGYTKLVGNDVARFINWMEEEFNYPLDNVHLLGYSLGAHAAGVAGSLTNKKVNRITGLDPAGPNFEYAEAPSRLSPDDADFVDVLHTFTRGSPGRSIGIQKPVGHVDIYPNGGTFQPGCNIGEAIRVIAERGLGDVDQLVKCSHERSIHLFIDSLLNEENPSKAYRCNSKEAFEKGLCLSCRKNRCNNLGYEINKVRAKRSSKMYLKTRSQMPYKVFHYQVKIHFSGTEDGKQHNQAFEISLYGTVAESENIPFTLPEVSTNKTYSFLIYTEVDIGELLMMKLKWISDSYFSWPDWWSSPSFVIERIRVKAGETQKKVIFCAREKVSHLQKGKDSAVFVKCHDKSLKKSG
[1]
  binding: binds

B2: apolipoprotein E (ApoE) (protein, UniProt P08226 19-311)
chain: EGEPEVTDQLEWQSNQPWEQALNRFWDYLRWVQTLSDQVQEELQSSQVTQELTALMEDTMTEVKAYKKELEEQLGPVAEETRARLGKEVQAAQARLGADMEDLRNRLGQYRNEVHTMLGQSTEEIRARLSTHLRKMRKRLMRDAEDLQKRLAVYKAGAREGAERGVSAIRERLGPLVEQGRQRTANLGAGAAQPLRDRAQAFGDRIRGRLEEVGNQARDRLEEVREHMEEVRSKMEEQTQQIRLQAEIFQARLKGWFEPIVEDMHRQWANLMEKIQASVATNPIITPVAQENQ
[1]
  binding: binds
[2]
  binding: binds

Source: publication PMC6277856
